Some of the results follow.
Each target was assayed with Cc1cc(ccc1-c1ccccc1)C(=O)N1CCCN(CC1)C(=O)CCl [compound 10] (assay: probe-labelled cysteine peptide fold change vs DMSO (competition) (log2 fold change); higher = less target engagement (more negative = stronger competition)). Details: 10 µM; THP-1; incubation time: 4 h.
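Note: competitive profiling in live THP-1 cells: cysteine peptides tagged with an iodoacetamide desthiobiotin (IA-DTB) probe, intensity after compound treatment relative to DMSO-treated cells.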

Chains of the proteins cited; added tags and fusions are not shown. Lines headed by an entry give the natural chain unless they say otherwise; changes in a name come on top.
UniProt Q9H6S0: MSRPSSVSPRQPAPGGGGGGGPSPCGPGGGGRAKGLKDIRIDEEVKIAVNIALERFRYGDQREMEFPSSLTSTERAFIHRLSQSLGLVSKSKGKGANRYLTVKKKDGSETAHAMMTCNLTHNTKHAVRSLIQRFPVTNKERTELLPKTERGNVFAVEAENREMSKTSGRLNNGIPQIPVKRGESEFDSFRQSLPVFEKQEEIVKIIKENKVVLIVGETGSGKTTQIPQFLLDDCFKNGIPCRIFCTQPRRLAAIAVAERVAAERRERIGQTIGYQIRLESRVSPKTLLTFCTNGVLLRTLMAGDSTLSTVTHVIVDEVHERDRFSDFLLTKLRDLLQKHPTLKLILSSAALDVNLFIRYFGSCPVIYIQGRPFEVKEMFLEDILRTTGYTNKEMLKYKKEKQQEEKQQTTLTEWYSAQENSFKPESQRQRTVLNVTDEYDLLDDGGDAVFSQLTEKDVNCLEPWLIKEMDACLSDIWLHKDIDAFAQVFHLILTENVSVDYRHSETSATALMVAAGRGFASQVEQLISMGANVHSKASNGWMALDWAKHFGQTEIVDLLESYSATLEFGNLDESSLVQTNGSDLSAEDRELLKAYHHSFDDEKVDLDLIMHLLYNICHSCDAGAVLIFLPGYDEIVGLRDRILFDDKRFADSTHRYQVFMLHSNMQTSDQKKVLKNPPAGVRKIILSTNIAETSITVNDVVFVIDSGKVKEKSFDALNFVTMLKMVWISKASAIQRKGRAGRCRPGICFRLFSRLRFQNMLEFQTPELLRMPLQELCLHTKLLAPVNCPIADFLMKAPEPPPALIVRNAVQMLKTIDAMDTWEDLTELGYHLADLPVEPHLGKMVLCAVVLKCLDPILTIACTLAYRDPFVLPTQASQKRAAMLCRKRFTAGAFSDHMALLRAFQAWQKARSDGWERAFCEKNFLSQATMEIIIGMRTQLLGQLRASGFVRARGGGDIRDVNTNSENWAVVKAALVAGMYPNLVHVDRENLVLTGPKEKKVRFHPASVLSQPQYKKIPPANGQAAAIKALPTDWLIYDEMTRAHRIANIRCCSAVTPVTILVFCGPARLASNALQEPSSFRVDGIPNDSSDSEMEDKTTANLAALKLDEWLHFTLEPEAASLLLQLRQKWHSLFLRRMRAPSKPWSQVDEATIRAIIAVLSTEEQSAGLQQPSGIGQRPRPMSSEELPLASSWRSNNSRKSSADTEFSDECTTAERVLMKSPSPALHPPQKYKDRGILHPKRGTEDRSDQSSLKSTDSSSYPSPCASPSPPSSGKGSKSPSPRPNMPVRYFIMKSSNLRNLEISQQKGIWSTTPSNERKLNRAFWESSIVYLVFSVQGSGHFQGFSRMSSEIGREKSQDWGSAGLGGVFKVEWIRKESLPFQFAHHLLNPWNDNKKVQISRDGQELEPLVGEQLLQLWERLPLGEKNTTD
UniProt Q9NPG8: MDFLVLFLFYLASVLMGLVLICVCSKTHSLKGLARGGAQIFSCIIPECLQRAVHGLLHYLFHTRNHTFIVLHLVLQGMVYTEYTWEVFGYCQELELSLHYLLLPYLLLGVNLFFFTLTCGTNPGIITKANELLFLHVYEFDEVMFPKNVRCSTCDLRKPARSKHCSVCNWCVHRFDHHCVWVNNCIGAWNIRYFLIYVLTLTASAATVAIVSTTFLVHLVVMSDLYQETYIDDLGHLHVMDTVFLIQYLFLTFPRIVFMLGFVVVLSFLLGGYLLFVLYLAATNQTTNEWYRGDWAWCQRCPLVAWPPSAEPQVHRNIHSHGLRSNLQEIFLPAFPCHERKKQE
UniProt P63104: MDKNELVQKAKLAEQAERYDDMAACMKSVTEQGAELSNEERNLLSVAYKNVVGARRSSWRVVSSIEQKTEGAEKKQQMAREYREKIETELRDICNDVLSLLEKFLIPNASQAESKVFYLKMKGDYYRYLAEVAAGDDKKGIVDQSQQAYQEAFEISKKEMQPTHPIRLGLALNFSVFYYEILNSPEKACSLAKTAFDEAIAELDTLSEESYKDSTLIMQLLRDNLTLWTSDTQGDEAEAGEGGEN
UniProt Q9UIA9: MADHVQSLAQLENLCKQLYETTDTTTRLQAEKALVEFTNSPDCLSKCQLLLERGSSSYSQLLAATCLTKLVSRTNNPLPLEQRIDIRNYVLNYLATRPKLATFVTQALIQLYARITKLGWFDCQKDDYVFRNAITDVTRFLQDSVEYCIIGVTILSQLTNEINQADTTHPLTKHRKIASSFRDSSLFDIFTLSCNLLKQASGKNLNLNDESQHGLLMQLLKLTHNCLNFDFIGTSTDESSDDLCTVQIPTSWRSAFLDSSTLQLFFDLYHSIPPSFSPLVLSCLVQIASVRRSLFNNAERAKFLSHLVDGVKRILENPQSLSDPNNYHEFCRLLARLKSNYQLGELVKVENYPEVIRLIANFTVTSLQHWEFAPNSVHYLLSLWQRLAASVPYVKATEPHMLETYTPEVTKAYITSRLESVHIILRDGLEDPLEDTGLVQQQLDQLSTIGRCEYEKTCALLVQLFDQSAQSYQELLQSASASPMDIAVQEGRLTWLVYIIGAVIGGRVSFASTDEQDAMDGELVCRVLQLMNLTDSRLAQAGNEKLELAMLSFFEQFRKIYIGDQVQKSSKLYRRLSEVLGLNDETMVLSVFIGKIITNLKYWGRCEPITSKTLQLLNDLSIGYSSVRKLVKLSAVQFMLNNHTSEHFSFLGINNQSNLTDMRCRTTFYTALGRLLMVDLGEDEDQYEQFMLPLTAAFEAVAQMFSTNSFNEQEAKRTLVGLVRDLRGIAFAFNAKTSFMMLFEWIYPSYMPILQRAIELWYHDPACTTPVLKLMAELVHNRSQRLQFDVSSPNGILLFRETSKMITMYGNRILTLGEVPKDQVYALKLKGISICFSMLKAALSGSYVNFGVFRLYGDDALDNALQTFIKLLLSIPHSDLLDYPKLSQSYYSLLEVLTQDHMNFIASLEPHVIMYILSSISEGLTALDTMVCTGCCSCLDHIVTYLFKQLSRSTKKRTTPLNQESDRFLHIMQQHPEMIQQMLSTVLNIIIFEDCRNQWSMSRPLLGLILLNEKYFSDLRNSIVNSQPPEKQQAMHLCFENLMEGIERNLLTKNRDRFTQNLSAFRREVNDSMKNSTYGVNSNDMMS
UniProt O43542: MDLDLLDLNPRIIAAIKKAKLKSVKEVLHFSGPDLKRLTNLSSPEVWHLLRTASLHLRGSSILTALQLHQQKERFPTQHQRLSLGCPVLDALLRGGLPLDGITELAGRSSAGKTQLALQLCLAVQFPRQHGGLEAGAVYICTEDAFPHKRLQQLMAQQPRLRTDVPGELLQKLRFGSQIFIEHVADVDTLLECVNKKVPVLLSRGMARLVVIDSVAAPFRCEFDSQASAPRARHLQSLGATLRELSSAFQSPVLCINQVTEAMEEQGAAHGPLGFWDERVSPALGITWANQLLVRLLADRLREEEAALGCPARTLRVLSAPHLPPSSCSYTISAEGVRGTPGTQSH
UniProt Q9P243: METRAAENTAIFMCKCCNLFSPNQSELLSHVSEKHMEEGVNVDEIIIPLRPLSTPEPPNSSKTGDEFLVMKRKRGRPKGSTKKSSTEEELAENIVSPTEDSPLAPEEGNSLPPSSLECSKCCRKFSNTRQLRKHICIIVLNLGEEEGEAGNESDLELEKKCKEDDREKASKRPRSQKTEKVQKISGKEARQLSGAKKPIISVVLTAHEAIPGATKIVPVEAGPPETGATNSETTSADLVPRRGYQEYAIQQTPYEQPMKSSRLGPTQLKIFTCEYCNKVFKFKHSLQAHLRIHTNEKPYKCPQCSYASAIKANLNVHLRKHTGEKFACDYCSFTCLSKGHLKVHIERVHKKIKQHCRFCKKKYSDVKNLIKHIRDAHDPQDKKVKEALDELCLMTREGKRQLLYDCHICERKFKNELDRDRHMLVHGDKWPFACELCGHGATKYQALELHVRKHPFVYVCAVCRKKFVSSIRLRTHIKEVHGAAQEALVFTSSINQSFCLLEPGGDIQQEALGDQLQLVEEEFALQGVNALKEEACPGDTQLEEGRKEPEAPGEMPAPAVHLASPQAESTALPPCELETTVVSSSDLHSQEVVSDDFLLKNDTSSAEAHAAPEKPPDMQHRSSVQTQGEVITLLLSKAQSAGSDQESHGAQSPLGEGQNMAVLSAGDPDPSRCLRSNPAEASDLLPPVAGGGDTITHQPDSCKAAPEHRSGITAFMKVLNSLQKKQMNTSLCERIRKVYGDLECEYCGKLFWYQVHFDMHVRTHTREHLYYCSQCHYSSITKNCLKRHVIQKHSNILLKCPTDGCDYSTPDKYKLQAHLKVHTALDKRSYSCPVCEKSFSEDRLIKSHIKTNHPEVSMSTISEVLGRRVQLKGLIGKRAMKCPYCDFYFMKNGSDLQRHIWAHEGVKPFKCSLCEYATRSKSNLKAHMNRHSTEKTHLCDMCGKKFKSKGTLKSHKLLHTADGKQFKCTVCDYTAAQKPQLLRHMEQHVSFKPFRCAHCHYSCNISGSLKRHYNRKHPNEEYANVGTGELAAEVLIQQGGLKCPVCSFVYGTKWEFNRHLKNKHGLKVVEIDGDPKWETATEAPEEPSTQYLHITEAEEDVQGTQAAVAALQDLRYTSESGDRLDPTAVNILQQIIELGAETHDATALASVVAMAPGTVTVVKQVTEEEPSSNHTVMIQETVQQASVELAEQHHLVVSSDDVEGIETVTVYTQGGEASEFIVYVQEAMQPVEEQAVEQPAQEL
UniProt Q8WV99: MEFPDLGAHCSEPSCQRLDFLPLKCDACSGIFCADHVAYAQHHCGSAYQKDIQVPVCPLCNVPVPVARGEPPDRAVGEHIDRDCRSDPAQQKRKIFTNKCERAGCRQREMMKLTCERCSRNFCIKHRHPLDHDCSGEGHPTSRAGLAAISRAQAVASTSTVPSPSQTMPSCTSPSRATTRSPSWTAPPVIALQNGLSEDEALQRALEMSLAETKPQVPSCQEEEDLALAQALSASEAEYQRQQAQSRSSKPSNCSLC
UniProt P62258: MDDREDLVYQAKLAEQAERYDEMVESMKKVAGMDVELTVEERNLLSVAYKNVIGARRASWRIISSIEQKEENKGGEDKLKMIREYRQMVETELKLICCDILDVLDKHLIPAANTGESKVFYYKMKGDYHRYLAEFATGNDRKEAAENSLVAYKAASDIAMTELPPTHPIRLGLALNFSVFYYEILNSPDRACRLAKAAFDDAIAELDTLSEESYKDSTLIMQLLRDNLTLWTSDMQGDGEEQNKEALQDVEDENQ
UniProt A2A288: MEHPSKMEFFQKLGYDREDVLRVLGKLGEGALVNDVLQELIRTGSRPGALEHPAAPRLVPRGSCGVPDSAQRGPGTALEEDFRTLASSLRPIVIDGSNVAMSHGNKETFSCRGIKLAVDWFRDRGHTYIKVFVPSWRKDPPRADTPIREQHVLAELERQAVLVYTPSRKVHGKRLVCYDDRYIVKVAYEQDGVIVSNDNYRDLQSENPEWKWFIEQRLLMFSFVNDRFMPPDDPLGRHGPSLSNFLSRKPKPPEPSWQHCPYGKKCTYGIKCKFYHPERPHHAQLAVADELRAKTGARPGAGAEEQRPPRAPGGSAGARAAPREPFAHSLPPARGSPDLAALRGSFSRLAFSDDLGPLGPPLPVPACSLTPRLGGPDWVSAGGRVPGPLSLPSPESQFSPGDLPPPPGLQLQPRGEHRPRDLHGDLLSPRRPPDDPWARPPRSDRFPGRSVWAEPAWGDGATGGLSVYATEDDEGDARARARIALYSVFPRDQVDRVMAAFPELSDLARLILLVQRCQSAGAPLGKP
UniProt Q96H79: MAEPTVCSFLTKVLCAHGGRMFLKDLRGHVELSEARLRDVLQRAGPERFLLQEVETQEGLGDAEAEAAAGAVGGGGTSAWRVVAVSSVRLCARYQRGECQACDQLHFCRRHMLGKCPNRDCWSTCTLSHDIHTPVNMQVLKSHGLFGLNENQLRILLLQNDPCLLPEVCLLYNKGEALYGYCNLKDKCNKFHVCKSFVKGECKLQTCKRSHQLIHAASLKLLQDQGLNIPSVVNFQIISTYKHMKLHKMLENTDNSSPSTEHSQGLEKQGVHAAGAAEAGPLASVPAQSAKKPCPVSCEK
UniProt Q96K80: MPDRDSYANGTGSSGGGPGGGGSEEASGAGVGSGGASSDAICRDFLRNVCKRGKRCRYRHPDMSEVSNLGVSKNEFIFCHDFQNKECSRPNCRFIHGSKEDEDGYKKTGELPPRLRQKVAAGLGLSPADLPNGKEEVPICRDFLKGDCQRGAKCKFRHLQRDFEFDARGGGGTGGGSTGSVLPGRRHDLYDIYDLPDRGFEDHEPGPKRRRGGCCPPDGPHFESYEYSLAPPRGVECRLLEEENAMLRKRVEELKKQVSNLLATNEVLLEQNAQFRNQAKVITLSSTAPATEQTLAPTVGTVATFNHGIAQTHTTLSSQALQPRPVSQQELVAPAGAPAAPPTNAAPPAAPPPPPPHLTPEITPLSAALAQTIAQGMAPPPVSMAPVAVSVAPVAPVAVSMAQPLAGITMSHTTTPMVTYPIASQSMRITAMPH

Target	probe-labelled cysteine peptide fold change
XRN2_Q9H0D6_21_KYPSIIVNCVEEK (UniProt Q9H0D6)	-0.0843
YTHDC2_Q9H6S0_25_QPAPGGGGGGGPSPCGPGGGGR (UniProt Q9H6S0)	-0.289
ZDHHC4_Q9NPG8_337_SNLQEIFLPAFPCHER (UniProt Q9NPG8)	0.0234
YY1_P25490_385_IHTGDRPYVCPFDGCNKK (UniProt P25490)	-0.00426
YWHAZ_P63104_94_DICNDVLSLLEK (UniProt P63104)	0.233
XPO7_Q9UIA9_123_LGWFDCQK (UniProt Q9UIA9)	-0.42
XRCC3_O43542_310_LREEEAALGCPAR (UniProt O43542)	-0.161
ZFAT_Q9P243_392_EALDELCLMTR (UniProt Q9P243)	0.0869
ZFAND2B_Q8WV99_134_HRHPLDHDCSGEGHPTSR (UniProt Q8WV99)	-0.148
YWHAE_P62258_98_LICCDILDVLDK (UniProt P62258)	0.136
ZC3H12D_A2A288_266_CTYGIK (UniProt A2A288)	0.0498
ZC3H7A_Q8IWR0_515_DVAAEEECR (UniProt Q8IWR0)	-0.0685
ZC3HAV1L_Q96H79_108_GECQACDQLHFCR (UniProt Q96H79)	-0.0102
ZC3H10_Q96K80_79_NEFIFCHDFQNK (UniProt Q96K80)	-0.0348
XPO7_Q9UIA9_66_GSSSYSQLLAATCLTK (UniProt Q9UIA9)	0.148
ZCCHC3_Q9NUD5_385_GHAFAQCPK (UniProt Q9NUD5)	0.0381
XRCC1_P18887_615_WIYSCNEK (UniProt P18887)	0.0968

Part of the list above in a different format.

| Target | probe-labelled cysteine peptide fold change |
| --- | --- |
| XPO7_Q9UIA9_123_LGWFDCQK (UniProt Q9UIA9) | -0.42 |
| ZFAND2B_Q8WV99_134_HRHPLDHDCSGEGHPTSR (UniProt Q8WV99) | -0.148 |
